From the supplement of paper PMC11237882
The list shows a part of the results. Values are worked out from sequencing counts and are noisy.

T1: Homer1 EVH1 domain
T1 chain: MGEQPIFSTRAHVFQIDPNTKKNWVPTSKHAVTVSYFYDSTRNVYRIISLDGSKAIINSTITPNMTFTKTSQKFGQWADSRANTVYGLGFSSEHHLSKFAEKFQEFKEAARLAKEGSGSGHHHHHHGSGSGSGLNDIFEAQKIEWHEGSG


Target: T1, Homer1 EVH1 domain
Assay: enrichment score (AUC of log2 frequency ratio across FACS sorting rounds) (log2 AUC); higher = stronger enrichment for Homer1 EVH1 binding

Row | Binder | enrichment score
1 | HDRGRFFTILGLFCAGQGVFWASMAVAAVSRPPVPA | 3.07
2 | KYEGRSYEEKKQFLKDYFHKKPYPSKKEIELLSSLF | 0.252
3 | YVGIYILIAVGAVMMFVGFLGCYGAIQESQCLLGTF | 2.41
4 | PPLLFAPSVAAFCGFLPPPPWLFEAFCPRRRGFLLP | 3.67
5 | SWLVSFLIIFPALMLLLKLHYCRSNIIDHFTCDYFP | 1.15
6 | FWQVLLTGLISFSTASIIIGYVVIKFNKDSWDLQSC | -0.793
7 | IKEPGGYVSNLRKICSPEAGLAEYLFDKLTLGGRVK | 1.42
8 | NYWLEIFDNFAASLNLLMLAFLEVVGVVYVYGMKRS | 2.64
9 | LCVVLYVASSLFLIVMYFFFRVRSRRWKVKHHHPAV | 3.09
10 | EAIATFGGAVAAFAVGYVKVNWDLLGELALVVFSVA | -2.17
11 | PPPEFYPGPPMMDGAMGYVQPPPPPYPGPMEPPVSG | 6.2
12 | RCLGKSKGRTHPRIDPDVIHRLRKFYKPFNLMFYQM | -0.143
